This is one part of the list.
How the values were obtained:
Assay in all cases: log2 fold change, soluble protein after heating vs DMSO (PISA); higher = thermal stabilisation; K562 cells, 10 uM, 30 min; active = over 0.2 and 3.5 SD of the protein, either way, in both replicates (recomputed)
[1] = compound: NC(=O)Nc1cc(-c2cccc(F)c2)sc1C(=O)N[C@H]1CCCNC1
Summary of the method: (§1)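 K562 cells (2×10^6 cells/mL) were treated with 10 μM compound for 30 min, and aliquots were heated for 3 min over 48°C-58°C. Pooled aliquots were extracted in PBS with 0.5% NP-40 at 4°C, and the supernatant after 21,000xg for 90 min was measured by TMTpro 16plex LC-MS/MS with channel sums equalised. Reported thermal stability, relative to control samples and from duplicates, is a log2 fold change.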

Protein sequences, listed by entry. Tags and fused reporters are not part of them. Lines headed by an entry give the natural chain unless they say otherwise; changes in a name come on top.
UniProt Q8IW75: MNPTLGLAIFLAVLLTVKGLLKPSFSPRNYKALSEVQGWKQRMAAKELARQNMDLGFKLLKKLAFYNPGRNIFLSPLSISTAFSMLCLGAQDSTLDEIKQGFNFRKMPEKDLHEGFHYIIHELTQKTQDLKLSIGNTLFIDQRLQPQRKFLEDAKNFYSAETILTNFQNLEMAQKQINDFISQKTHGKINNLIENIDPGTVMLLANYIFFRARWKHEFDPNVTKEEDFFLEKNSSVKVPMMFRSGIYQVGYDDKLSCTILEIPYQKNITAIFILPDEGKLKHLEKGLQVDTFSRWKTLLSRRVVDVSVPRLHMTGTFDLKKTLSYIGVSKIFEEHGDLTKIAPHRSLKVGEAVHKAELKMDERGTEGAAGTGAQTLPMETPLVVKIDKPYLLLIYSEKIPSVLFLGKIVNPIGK
UniProt Q8WV19: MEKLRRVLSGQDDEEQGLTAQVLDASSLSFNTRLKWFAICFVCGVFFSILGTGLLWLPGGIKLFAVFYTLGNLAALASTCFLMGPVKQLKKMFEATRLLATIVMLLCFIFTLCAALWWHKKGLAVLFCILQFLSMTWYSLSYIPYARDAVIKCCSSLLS
UniProt Q99442: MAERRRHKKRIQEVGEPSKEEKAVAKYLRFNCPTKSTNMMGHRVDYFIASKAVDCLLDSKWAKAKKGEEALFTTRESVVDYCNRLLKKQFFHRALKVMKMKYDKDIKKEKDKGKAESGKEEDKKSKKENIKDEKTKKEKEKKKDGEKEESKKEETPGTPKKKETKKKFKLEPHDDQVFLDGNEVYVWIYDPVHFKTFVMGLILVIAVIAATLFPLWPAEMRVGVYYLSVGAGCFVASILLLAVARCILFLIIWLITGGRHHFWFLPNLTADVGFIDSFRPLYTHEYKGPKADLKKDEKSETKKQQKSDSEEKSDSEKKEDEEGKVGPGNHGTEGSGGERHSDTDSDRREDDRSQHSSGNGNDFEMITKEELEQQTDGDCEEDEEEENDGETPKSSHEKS
UniProt Q9BX95: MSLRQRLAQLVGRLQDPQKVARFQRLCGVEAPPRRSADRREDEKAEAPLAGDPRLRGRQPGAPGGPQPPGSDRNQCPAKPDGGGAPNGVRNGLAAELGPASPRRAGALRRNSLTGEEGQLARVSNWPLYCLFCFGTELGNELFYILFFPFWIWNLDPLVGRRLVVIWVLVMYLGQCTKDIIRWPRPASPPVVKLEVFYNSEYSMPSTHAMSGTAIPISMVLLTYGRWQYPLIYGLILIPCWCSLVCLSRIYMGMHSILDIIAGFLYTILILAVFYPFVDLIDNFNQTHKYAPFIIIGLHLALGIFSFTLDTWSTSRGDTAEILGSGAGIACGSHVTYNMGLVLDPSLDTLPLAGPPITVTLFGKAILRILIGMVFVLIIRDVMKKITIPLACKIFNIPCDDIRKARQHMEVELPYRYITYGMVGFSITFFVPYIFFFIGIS
UniProt Q8NC51: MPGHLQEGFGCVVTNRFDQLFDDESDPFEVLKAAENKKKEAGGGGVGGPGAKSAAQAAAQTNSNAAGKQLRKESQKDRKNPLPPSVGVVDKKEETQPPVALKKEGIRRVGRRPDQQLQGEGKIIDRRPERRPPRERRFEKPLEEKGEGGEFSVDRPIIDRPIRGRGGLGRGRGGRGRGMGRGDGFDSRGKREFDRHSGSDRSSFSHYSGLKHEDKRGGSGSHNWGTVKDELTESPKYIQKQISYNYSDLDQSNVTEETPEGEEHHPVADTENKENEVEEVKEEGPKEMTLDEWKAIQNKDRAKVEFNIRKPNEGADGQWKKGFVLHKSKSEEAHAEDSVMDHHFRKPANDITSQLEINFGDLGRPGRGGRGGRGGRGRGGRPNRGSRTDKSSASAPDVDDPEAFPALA
UniProt Q9UBV2: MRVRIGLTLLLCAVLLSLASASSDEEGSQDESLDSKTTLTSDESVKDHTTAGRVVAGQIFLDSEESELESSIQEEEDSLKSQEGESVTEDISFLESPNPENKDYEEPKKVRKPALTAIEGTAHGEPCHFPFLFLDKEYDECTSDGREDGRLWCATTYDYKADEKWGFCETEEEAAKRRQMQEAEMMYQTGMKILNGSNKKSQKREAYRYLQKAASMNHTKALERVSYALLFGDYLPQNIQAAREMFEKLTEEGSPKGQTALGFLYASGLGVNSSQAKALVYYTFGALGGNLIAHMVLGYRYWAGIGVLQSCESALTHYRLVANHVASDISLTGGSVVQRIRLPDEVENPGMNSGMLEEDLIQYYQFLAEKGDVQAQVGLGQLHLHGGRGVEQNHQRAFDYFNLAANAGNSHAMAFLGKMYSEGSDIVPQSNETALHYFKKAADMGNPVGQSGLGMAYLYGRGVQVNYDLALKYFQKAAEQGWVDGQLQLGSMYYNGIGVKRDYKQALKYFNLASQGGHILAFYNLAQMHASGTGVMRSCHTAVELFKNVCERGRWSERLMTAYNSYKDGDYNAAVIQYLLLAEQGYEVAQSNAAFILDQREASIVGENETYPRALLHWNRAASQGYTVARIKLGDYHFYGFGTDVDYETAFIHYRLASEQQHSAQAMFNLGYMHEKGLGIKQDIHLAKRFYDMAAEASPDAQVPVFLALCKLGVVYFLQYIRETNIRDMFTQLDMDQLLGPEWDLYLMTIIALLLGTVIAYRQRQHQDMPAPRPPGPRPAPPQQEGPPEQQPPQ
UniProt Q9HD40: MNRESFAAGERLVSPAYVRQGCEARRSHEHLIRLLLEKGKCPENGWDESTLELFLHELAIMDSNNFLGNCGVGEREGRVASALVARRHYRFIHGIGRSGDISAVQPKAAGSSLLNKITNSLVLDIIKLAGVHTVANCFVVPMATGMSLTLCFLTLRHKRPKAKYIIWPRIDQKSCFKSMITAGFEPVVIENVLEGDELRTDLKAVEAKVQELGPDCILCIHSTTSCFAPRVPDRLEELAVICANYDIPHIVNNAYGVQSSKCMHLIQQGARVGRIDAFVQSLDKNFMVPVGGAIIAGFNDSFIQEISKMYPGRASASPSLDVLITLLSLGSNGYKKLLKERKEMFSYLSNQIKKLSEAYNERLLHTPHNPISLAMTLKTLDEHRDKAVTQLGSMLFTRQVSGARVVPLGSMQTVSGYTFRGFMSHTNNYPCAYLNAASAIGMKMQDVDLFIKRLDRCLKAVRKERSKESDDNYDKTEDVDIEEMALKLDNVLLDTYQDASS
UniProt Q9P0V9: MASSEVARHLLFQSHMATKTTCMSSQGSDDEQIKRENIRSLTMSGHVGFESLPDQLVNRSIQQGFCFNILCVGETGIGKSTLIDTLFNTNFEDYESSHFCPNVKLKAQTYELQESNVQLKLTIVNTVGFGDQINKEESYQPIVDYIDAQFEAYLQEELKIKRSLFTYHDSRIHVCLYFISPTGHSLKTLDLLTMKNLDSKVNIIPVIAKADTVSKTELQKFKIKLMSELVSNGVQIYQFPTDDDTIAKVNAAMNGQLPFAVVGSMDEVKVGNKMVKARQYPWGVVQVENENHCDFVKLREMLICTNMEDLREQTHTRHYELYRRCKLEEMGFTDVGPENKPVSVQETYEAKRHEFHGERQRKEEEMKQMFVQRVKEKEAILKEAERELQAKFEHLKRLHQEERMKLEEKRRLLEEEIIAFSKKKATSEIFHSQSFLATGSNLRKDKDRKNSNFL
UniProt Q8NBJ9: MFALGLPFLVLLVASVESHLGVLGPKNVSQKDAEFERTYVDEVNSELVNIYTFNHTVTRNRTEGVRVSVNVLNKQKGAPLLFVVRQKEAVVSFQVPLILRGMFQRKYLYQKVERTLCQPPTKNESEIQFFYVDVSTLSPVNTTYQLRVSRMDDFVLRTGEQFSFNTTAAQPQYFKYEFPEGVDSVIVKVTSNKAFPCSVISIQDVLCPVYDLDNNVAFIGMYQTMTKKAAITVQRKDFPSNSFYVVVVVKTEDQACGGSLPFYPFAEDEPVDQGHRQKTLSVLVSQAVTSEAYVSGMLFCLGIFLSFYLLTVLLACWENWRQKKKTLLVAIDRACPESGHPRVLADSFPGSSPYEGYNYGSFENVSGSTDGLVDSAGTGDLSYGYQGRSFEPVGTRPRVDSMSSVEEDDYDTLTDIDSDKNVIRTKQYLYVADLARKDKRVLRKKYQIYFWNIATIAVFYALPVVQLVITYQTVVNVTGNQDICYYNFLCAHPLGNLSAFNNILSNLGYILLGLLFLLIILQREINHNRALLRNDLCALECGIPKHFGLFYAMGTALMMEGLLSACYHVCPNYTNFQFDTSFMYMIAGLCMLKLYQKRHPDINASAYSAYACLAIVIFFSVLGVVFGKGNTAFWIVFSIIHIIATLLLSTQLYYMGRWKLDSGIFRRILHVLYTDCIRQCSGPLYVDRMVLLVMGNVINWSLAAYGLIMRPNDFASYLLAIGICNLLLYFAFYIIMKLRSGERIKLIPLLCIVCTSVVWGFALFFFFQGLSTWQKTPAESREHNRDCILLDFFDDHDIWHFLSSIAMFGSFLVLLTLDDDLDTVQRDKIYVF
UniProt O75533, whole entry, looked up: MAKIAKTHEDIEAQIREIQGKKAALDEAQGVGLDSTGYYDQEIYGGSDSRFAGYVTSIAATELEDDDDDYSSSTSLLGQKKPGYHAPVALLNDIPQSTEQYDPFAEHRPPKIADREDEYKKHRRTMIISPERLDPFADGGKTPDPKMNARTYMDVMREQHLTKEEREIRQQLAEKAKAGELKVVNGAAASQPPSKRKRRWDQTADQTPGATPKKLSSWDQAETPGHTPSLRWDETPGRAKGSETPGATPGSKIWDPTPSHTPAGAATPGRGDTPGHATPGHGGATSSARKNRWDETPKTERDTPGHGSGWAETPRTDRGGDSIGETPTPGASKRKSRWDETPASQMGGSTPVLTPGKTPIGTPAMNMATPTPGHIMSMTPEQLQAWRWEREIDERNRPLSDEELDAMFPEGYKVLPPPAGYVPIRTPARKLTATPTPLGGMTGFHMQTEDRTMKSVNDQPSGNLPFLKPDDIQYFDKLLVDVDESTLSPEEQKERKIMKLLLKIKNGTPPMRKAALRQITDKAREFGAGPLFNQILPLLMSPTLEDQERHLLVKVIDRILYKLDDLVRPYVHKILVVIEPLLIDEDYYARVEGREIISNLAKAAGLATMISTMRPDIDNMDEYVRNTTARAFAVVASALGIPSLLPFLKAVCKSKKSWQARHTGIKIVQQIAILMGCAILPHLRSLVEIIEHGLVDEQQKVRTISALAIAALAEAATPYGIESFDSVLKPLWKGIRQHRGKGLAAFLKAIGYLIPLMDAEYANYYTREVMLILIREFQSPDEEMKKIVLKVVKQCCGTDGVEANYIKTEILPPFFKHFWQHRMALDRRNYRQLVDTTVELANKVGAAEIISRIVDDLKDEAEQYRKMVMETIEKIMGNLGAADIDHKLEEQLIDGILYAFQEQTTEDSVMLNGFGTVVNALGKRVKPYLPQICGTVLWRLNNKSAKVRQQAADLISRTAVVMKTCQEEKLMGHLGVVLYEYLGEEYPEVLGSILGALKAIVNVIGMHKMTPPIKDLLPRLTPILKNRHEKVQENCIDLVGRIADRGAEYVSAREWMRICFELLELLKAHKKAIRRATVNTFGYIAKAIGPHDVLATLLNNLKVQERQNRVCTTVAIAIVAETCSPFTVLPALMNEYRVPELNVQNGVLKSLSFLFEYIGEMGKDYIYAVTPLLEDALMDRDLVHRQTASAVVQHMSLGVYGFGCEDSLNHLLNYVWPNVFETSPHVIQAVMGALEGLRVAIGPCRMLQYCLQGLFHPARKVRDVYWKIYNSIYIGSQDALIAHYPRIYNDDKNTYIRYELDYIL
UniProt Q9NRX5: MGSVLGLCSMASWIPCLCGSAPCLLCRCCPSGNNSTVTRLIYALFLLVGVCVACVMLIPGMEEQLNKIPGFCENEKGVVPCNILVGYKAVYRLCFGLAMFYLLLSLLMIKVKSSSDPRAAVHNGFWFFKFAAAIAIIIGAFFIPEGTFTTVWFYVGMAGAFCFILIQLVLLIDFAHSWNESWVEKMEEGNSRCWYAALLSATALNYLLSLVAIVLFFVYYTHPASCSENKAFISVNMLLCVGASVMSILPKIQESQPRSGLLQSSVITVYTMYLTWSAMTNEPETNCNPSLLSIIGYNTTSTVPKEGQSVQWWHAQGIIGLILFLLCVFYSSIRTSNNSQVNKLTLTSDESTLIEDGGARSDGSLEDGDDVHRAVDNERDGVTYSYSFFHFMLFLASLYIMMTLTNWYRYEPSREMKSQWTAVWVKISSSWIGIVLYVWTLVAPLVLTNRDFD
UniProt Q9NVA2: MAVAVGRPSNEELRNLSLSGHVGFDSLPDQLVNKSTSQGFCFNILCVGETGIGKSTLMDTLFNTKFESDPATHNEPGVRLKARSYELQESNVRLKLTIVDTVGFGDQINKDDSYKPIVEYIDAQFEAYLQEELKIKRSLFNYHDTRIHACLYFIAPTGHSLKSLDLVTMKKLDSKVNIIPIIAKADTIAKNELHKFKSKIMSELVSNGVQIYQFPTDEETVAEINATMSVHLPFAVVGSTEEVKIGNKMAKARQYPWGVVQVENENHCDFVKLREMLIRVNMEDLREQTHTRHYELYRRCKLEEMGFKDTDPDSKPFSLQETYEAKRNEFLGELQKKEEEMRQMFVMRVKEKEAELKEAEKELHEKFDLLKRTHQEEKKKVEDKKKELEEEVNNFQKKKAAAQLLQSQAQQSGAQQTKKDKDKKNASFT

[2] = compound: NC(=O)c1cnc(N[C@@H]2CCCC[C@@H]2N)nc1Nc1cccc(-n2nccn2)c1
Summary of the method: as §1

[3] = compound: NC1(c2ccc(-c3nc4ccn5c(=O)[nH]nc5c4cc3-c3ccccc3)cc2)CCC1
Summary of the method: as §1

[4] = compound: NCC(=O)Nc1ccc(-n2nc(C(F)(F)F)cc2-c2ccc3c(ccc4ccccc43)c2)cc1
Summary of the method: as §1

entinostat = compound: Nc1ccccc1NC(=O)c1ccc(CNC(=O)OCc2cccnc2)cc1 [entinostat]
Summary of the method: as §1

vorinostat = compound: O=C(CCCCCCC(=O)Nc1ccccc1)NO [vorinostat]
Summary of the method: as §1

citarinostat = compound: O=C(CCCCCCNC(=O)c1cnc(N(c2ccccc2)c2ccccc2Cl)nc1)NO [citarinostat]
Summary of the method: as §1

silmitasertib = compound: O=C(O)c1ccc2c(c1)nc(Nc1cccc(Cl)c1)c1ccncc12 [silmitasertib]
Summary of the method: as §1

[5] = compound: O=C1NC(=O)C(c2cnc3ccccn23)=C1c1cn2c3c(cc(F)cc13)CN(C(=O)N1CCCCC1)CC2
Summary of the method: as §1

[6] = compound: c1cc(OCCN2CCCCC2)cc(-c2n[nH]c3ccc(-c4nnc[nH]4)cc23)c1
Summary of the method: as §1

Measured: log2 fold change

SERPINC1 (UniProt P01008)
inactive: [1] -0.114 | [2] 0.098 | [3] 0.124 | [4] 0.026 | entinostat -0.008 | vorinostat 0.049 | citarinostat 0.018 | silmitasertib 0.067 | [5] 0.123 | [6] 0.396

SERPINA12 (UniProt Q8IW75)
inactive: [1] 0.066 | [3] -0.077 | [4] 0.24 | entinostat 0.063 | citarinostat -0.183 | silmitasertib 0.101 | [5] -0.265 | [6] 0.997

SFT2D1 (UniProt Q8WV19)
inactive: [1] -0.036 | [2] -0.078 | [3] -0.077 | entinostat -0.001 | citarinostat 0.058 | silmitasertib 0.02 | [6] -0.033

SEC62 (UniProt Q99442)
inactive: [1] -0.047 | [2] 0.092 | [3] 0.058 | [4] 0.007 | entinostat -0.012 | vorinostat -0.086 | citarinostat -0.052 | silmitasertib 0.005 | [5] -0.098 | [6] 0.004

SEMG2 (UniProt Q02383)
inactive: [1] -0.013 | [2] 0.046 | [3] 0.651 | entinostat 0.033 | vorinostat -0.073 | citarinostat 0.066 | silmitasertib 0.001 | [5] 0.051 | [6] -0.067

SH3BGRL2 (UniProt Q9UJC5)
inactive: [1] 0.022 | [2] -0.045 | [3] 0.024 | [4] -0.06 | entinostat -0.061 | vorinostat -0.001 | citarinostat 0.022 | silmitasertib 0.017 | [5] -0.127 | [6] -0.092

SFXN4 isoform 3 (UniProt Q6P4A7)
inactive: [1] -0.33 | [2] 0.073 | [4] 0.076 | entinostat -0.134 | vorinostat 0.059 | citarinostat 0.114 | [6] -0.058

SGPP1 (UniProt Q9BX95)
inactive: [1] -0.032 | [2] -0.002 | [3] -0.113 | [4] -0.055 | entinostat -0.015 | vorinostat 0.015 | citarinostat -0.177 | silmitasertib 0.186 | [5] -0.048 | [6] 0.049

SIKE1 (UniProt Q9BRV8)
inactive: [1] 0.003 | [2] -0.01 | [3] -0.009 | [4] 0.054 | entinostat -0.072 | vorinostat 0.036 | silmitasertib 0.016 | [5] -0.059

SERBP1 (UniProt Q8NC51)
inactive: [1] -0.006 | [2] -0.045 | [3] 0.207 | [4] 0.026 | entinostat -0.053 | vorinostat -0.069 | citarinostat -0.07 | silmitasertib 0.066 | [5] 0.073 | [6] -0.108

SH3BP5 (UniProt O60239)
inactive: [1] -0.018 | [2] -0.066 | [3] -0.028 | [4] -0.037 | entinostat 0.01 | vorinostat -0.036 | citarinostat 0.015 | silmitasertib 0.019 | [5] -0.026 | [6] -0.228

SIK3 (UniProt H0Y4E8)
inactive: [1] -0.022 | [2] 0.08 | [3] -0.22 | [4] -0.038 | entinostat -0.075 | vorinostat -0.053 | citarinostat -0.053 | silmitasertib 0.054 | [6] -0.098

SKA1 (UniProt Q96BD8)
inactive: [1] 0.126 | [3] 0.083 | [4] -0.074 | entinostat 0.101 | vorinostat 0.111 | citarinostat 0.051 | silmitasertib 0.115 | [5] 0.239 | [6] -0.199

SIAE (UniProt Q9HAT2)
inactive: [1] 0.033 | [2] 0.051 | [4] -0.253 | entinostat -0.011 | vorinostat 0.022 | [5] -0.089

SEL1L (UniProt Q9UBV2)
inactive: [1] 0.005 | [2] -0.024 | [3] -0.05 | [4] 0.008 | entinostat -0.016 | vorinostat -0.016 | citarinostat -0.03 | silmitasertib 0.03 | [5] 0 | [6] -0.024

SIAH1 isoform 2 (UniProt Q8IUQ4)
inactive: [1] 0.133 | [2] -0.024 | [4] 0.045 | entinostat -0.001 | vorinostat 0.262 | citarinostat 0.159 | [5] 0.306 | [6] -0.034

SHB (UniProt Q15464)
inactive: [1] 0.02 | [2] -0.063 | [3] -0.358 | entinostat 0.071 | vorinostat 0.061 | silmitasertib 0.044

SEPSECS (UniProt Q9HD40)
inactive: [1] 0.068 | [2] 0.05 | [3] 0.001 | [4] 0.099 | entinostat 0.009 | vorinostat -0.046 | citarinostat 0.011 | silmitasertib 0.006 | [5] -0.025 | [6] 0.011

SEPTIN10 isoform 2 (UniProt Q9P0V9)
inactive: [1] 0.026 | [2] 0.038 | [3] 0.09 | [4] -0.06 | entinostat 0.005 | vorinostat -0.012 | citarinostat -0.014 | silmitasertib 0.013 | [5] -0.076 | [6] -0.026

Reprinted at random: 2 entries already listed.
SKA1 (UniProt Q96BD8)
inactive: [1] 0.126 | [3] 0.083 | [4] -0.074 | entinostat 0.101 | vorinostat 0.111 | citarinostat 0.051 | silmitasertib 0.115 | [5] 0.239 | [6] -0.199

SIAE (UniProt Q9HAT2)
inactive: [1] 0.033 | [2] 0.051 | [4] -0.253 | entinostat -0.011 | vorinostat 0.022 | [5] -0.089

Next results

SESN2 (UniProt P58004)
inactive: [1] -0.069 | [2] -0.159 | [3] -0.129 | [4] -0.093 | entinostat 0.075 | vorinostat 0.079 | citarinostat -0.081 | silmitasertib 0.108 | [5] -0.123 | [6] 0.026

SKA3 (UniProt Q8IX90)
inactive: [1] 0.052 | [3] 0.139 | [4] -0.194 | entinostat 0.014 | vorinostat 0.096 | citarinostat -0.02 | silmitasertib 0.071 | [5] 0.131 | [6] -0.014

SEPTIN4 isoform 4 (UniProt O43236)
inactive: [1] 0.321 | [2] 0.193 | [3] -0.035 | [4] 0.204 | entinostat 0.182 | vorinostat -0.011 | citarinostat 0.312 | silmitasertib 0.001 | [5] 0.283 | [6] -0.028

SFT2D3 (UniProt Q587I9)
inactive: [1] -0.006 | [3] 0.015 | [4] -0.006 | entinostat -0.079 | vorinostat 0.063 | citarinostat 0.13 | silmitasertib 0.046 | [5] 0.01 | [6] -0.011

SIRT1 (UniProt Q96EB6)
inactive: [1] -0.044 | [2] -0.011 | [3] -0.013 | [4] -0.075 | entinostat 0.033 | vorinostat 0.001 | citarinostat 0.012 | silmitasertib 0.066 | [5] -0.068 | [6] -0.011

SIDT2 isoform 2 (UniProt Q8NBJ9)
inactive: [1] 0.057 | [2] -0.01 | [3] -0.086 | [4] 0.297 | entinostat -0.064 | vorinostat -0.107 | citarinostat 0.002 | silmitasertib -0.067 | [5] 0.029 | [6] 0.108

SEC61A1 (UniProt P61619)
inactive: [1] -0.04 | [2] -0.017 | [3] -0.041 | [4] -0.049 | entinostat -0.012 | vorinostat -0.026 | citarinostat 0.019 | silmitasertib 0.035 | [5] -0.028 | [6] -0.077

SF3B1 (UniProt O75533)
inactive: [1] 0.02 | [2] -0.06 | [3] -0.026 | [4] -0.013 | entinostat 0.063 | vorinostat 0.127 | citarinostat 0.011 | silmitasertib 0 | [5] 0.037 | [6] -0.091

SHFL (UniProt Q9NUL5)
inactive: [1] -0.019 | [2] 0.357 | [3] 0.309 | entinostat -0.023 | vorinostat -0.055 | silmitasertib 0.084 | [5] 0.194

SLAIN2 (UniProt Q9P270)
inactive: [1] 0.127 | [2] -0.018 | [3] 0.05 | [4] 0.018 | entinostat -0.03 | vorinostat 0.032 | citarinostat 0.019 | silmitasertib 0.016 | [5] 0 | [6] -0.066

SERINC1 (UniProt Q9NRX5)
inactive: [1] -0.061 | [2] -0.241 | [3] 0.004 | [4] -0.174 | entinostat -0.009 | citarinostat 0.088 | silmitasertib 0.197 | [5] 0.032 | [6] 0.022

SEPTIN11 isoform 2 (UniProt Q9NVA2)
inactive: [1] -0.008 | [2] -0.036 | [3] 0.02 | [4] 0 | entinostat -0.023 | vorinostat -0.051 | citarinostat -0.009 | silmitasertib 0.011 | [5] -0.044 | [6] -0.046

SIGMAR1 (UniProt Q99720)
inactive: [1] 0.081 | [2] 0.082 | [3] -0.002 | [4] -0.064 | entinostat 0.043 | vorinostat 0.052 | citarinostat 0.044 | silmitasertib -0.029 | [5] 0.018 | [6] -0.035

Reference: the supplement of paper PMC10849652
